No constants are given. Whether binding was seen depends on the method and setting. In cells and extracts the contact can be indirect. Some results given as binding are weak or reduced against the parent protein; the word gives no strength. Tags and fused reporters may be left off the sequences shown.
Molecular target: T1, mouse Lmo2 (in vitro translated) (mouse) (UniProt P25801)
T1 sequence: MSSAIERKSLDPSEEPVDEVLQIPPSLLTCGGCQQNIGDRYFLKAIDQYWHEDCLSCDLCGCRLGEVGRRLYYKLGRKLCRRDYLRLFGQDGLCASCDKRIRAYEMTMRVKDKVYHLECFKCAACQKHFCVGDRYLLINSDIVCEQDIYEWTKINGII
Test: co-IP; in vitro: proteins translated in rabbit reticulocyte lysate, used directly; incubated in lysis buffer 1 h at 4 °C, then immunoprecipitated (Etv6, Klf4 or Lmo2 antibodies) on Dynabeads protein A; western blot

B1: Xenopus Ldb1-Myc (in vitro translated) (protein, UniProt P70060 1-375)
chain: MLDRDVGPTPMYPPTYLEPGIGRHTPYGNQTDYRIFELNKRLQNWTEECDNLWWDAFTTEFFEDDAMLTITFCLEDGPKRYTIGRTLIPRYFRSIFEGGATELYYVLKHPKESFHNNFVSLDCDQCTMVTQHGKPMFTQVCVEGRLYLEFMFDDMMRIKTWHFSIRQHRELIPRSILAMHAQDPQMLDQLSKNITRCGLSNSTLNYLRLCVILEPMQELMSRHKTYSLSPRDCLKTCLFQKWQRMVAPPAEPARQAPSKRRKRKMSGGSTMSSGGGNTNNSNSKKKSPASTFALSSQVPDVMVVGEPTLMGGEFGDEDERLITRLENTQFDAANGIDDEDSFNNSPALGANSPWNSKPPSSQESKSENPTSQASQ
binding: binds
